# PubChem BioAssay AID1224828, NIAID – 2016
# Aim: 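Regulators linking TLR4 signalling to p65 nuclear translocation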 (primary screen)
# Cells: mouse RAW264.7 G9 macrophage reporter cells (GFP-p65, Tnf promoter-mCherry)
# Reagents: siRNA pool against mouse genes, 100 nM
# Timing: 2 days siRNA transfection, then 40 min LPS before fixation
# Treatment: LPS (Salmonella minnesota R595) at 10 ng/ml
# Measurement: 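Imaged p65 nuclear translocation ratio, normalised to the plate median, converted to robust z-scores and averaged across two replicates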
# Reading the numbers: p65 translocation robust z-score: higher = more nuclear NF-kappaB p65 after LPS than the plate median; nuclear/cytoplasmic p65 ratio: higher = more nuclear NF-kappaB p65
# Active means: 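Called active when z exceeds 3.3 or falls under -1.56 (median of Tlr4 controls), giving activity score of at least 50; no calls for control wells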
# Calls: active = hit (p65 shift raised or lowered); inactive = no clear change
# Shown is an unselected part of about 17,000 deposited reagents. In the full data, 762 (4.5%) got an active call. 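Active calls include both raised and lowered p65 entry, mostly lowered; wells with fewer than 50 cells lack a z-score.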 The raw values are shown without normalisation. Unmarked entries are inactive.
target,p65 translocation robust z-score,"nuclear/cytoplasmic p65 ratio, rep 1","nuclear/cytoplasmic p65 ratio, rep 2",low cell count flag
Oxsr1 (oxidative-stress responsive 1),0.87,1.8,1.5,enough cells to score
Ca14 (carbonic anhydrase 14),-0.51,1.5,1.72,enough cells to score
Gpr45 (G protein-coupled receptor 45),0.87,1.74,1.71,enough cells to score
Tcf23 (transcription factor 23),,1.26,1.08,fewer than 50 cells per well; well left out of scoring
Map4k4 (mitogen-activated protein kinase kinase kinase kinase 4),0.11,1.48,1.39,enough cells to score
Phaf1 (phagosome assembly factor 1),0.5,1.65,1.93,enough cells to score
"Nprl2 (NPR2 like, GATOR1 complex subunit)",0.64,1.61,1.58,enough cells to score
Tro (trophinin),1.42,1.55,1.41,enough cells to score
Mecr (mitochondrial trans-2-enoyl-CoA reductase),-0.17,1.51,1.31,enough cells to score
Prmt8 (protein arginine N-methyltransferase 8),1.21,1.81,1.81,enough cells to score
1700028K03Rik (RIKEN cDNA 1700028K03 gene),0.12,1.41,1.31,enough cells to score
Trir (telomerase RNA component interacting RNase),,1.5,1.69,fewer than 50 cells per well; well left out of scoring
Nop14 (NOP14 nucleolar protein),,1.41,1.4,fewer than 50 cells per well; well left out of scoring
Tm4sf20 (transmembrane 4 L six family member 20),-1.64 (active),1.2,1.18,enough cells to score
Rnf212 (ring finger protein 212),0.08,1.58,1.5,enough cells to score
Ca5b (carbonic anhydrase 5B),-1.11,1.35,1.68,enough cells to score
4933434M16Rik (RIKEN cDNA 4933434M16 gene),0.58,1.4,1.58,enough cells to score
Or8s2 (olfactory receptor family 8 subfamily S member 2),,1.37,1.49,fewer than 50 cells per well; well left out of scoring
Tspan11 (tetraspanin 11),1.45,1.72,1.67,enough cells to score
Wdr62 (WD repeat domain 62),,1.28,1.31,fewer than 50 cells per well; well left out of scoring
BC035947 (cDNA sequence BC035947),-0.57,1.56,1.67,enough cells to score
Or8c16 (olfactory receptor family 8 subfamily C member 16),0.87,1.65,1.3,enough cells to score
Or51f23b (olfactory receptor family 51 subfamily F member 23B),,1.28,1.23,fewer than 50 cells per well; well left out of scoring
Or8k33 (olfactory receptor family 8 subfamily K member 33),-0.97,1.44,1.5,enough cells to score
Ndufv2 (NADH:ubiquinone oxidoreductase core subunit V2),0.89,1.52,1.49,enough cells to score
Runx1t1 (RUNX1 translocation partner 1),-0.72,1.29,1.36,enough cells to score
Abi2 (abl interactor 2),-0.71,1.58,1.43,enough cells to score
Cd209c (CD209c antigen),-2.86 (active),1.14,1.34,enough cells to score
Zfp804a (zinc finger protein 804A),1.57,1.64,1.59,enough cells to score
Setd7 (SET domain containing (lysine methyltransferase) 7),-0.3,1.56,1.46,enough cells to score
AW209491 (expressed sequence AW209491),0.71,1.59,1.73,enough cells to score
St13 (suppression of tumorigenicity 13),-0.21,1.54,1.51,enough cells to score
Duxbl1 (double homeobox B-like 1),,1.66,1.48,fewer than 50 cells per well; well left out of scoring
Plekha7 (pleckstrin homology domain containing A7),-0.32,1.36,1.46,enough cells to score
Or4c105 (olfactory receptor family 4 subfamily C member 105),-1.46,1.52,1.29,enough cells to score
Prom2 (prominin 2),-0.64,1.33,1.11,enough cells to score
"Coro2b (coronin, actin binding protein, 2B)",0.49,1.62,1.37,enough cells to score
"Gsta2 (glutathione S-transferase, alpha 2 (Yc2))",0,1.66,1.53,enough cells to score
Polr1d (polymerase (RNA) I polypeptide D),0.83,1.54,1.3,enough cells to score
Fn3krp (fructosamine 3 kinase related protein),-0.49,1.62,1.31,enough cells to score
Catsperb (cation channel sperm associated auxiliary subunit beta),-0.87,1.26,1.11,enough cells to score
"Spg21 (SPG21, maspardin)",-0.42,1.38,1.17,enough cells to score
Lyzl4 (lysozyme-like 4),-1,1.18,1.29,enough cells to score
Pdia3 (protein disulfide isomerase associated 3),-0.55,1.33,1.34,enough cells to score
"Tap1 (transporter 1, ATP-binding cassette, sub-family B (MDR/TAP))",-1.26,1.31,1.37,enough cells to score
Or4d2b (olfactory receptor family 4 subfamily D member 2B),,1.31,1.23,fewer than 50 cells per well; well left out of scoring
Cxcr1 (C-X-C motif chemokine receptor 1),1.2,1.63,1.8,enough cells to score
Rem2 (rad and gem related GTP binding protein 2),1.81,1.63,1.45,enough cells to score
"St3gal6 (ST3 beta-galactoside alpha-2,3-sialyltransferase 6)",1.78,1.68,1.43,enough cells to score
Il36b (interleukin 36B),0.01,1.52,1.34,enough cells to score
"Sec24a (SEC24 homolog A, COPII coat complex component)",-0.35,1.47,1.53,enough cells to score
Or4f47 (olfactory receptor family 4 subfamily F member 47),0.78,1.62,1.62,enough cells to score
Wdr45 (WD repeat domain 45),-0.42,1.3,1.25,enough cells to score
Vax2 (ventral anterior homeobox 2),-0.77,1.42,1.57,enough cells to score
Ttc29 (tetratricopeptide repeat domain 29),-0.32,1.38,1.35,enough cells to score
Or4f53 (olfactory receptor family 4 subfamily F member 53),,1.31,1.27,fewer than 50 cells per well; well left out of scoring
Tfpi2 (tissue factor pathway inhibitor 2),-0.29,1.49,1.46,enough cells to score
Rnf213 (ring finger protein 213),0.67,1.71,1.86,enough cells to score
Retreg1 (reticulophagy regulator 1),-0.58,1.28,1.38,enough cells to score

Individual results from the list:
Result for 1700028K03Rik (RIKEN cDNA 1700028K03 gene) in “nuclear/cytoplasmic p65 ratio, rep 2”: 1.31
For “low cell count flag”, Zfp804a (zinc finger protein 804A) reads enough cells to score
St3gal6 (ST3 beta-galactoside alpha-2,3-sialyltransferase 6), p65 translocation robust z-score = 1.78
For “nuclear/cytoplasmic p65 ratio, rep 1”, Wdr62 (WD repeat domain 62) shows 1.28
Under “nuclear/cytoplasmic p65 ratio, rep 1”, Tspan11 (tetraspanin 11) is entered as 1.72
Value of Oxsr1 (oxidative-stress responsive 1) in “p65 translocation robust z-score”: 0.87
